Results deposited as PubChem BioAssay AID1159584 (Peter MacCallum Cancer Centre, 2016).

Assay: 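Knock-downs that harm CDH1-null cells more than parental MCF10A cells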 (primary screen)
Cell system: human MCF10A breast epithelial cells, parental and CDH1-null
Reagent: siRNA against human genes
Measured: 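Cell viability by CellTiter-Glo ATP luminescence, each line scaled to the mean of mock wells across plates, then CDH1-null over parental ratio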
Reading the numbers: CDH1-null / parental viability ratio: higher = CDH1-null cells survive relatively better than parental; CDH1-null viability vs mock: higher = more viable CDH1-null cells; parental viability vs mock: higher = more viable parental cells
In all, the deposit lists about 18,000 reagents; shown is a part drawn at random. Not given: the amount of reagent, the time to read-out.

| target gene | CDH1-null / parental viability ratio | CDH1-null viability vs mock (fraction of mock) | parental viability vs mock (fraction of mock) |
| --- | --- | --- | --- |
| LSM2 (GeneID 57819) | 1.36 | 0.6 | 0.44 |
| MRPL28 (GeneID 10573) | 1.23 | 1.03 | 0.84 |
| SPANXN2 (GeneID 494119) | 0.8 | 0.78 | 0.98 |
| CEP120 (GeneID 153241) | 0.74 | 0.52 | 0.7 |
| COQ3 (GeneID 51805) | 1.42 | 0.75 | 0.53 |
| TNS1 (GeneID 7145) | 1.27 | 0.8 | 0.63 |
| TMEM81 (GeneID 388730) | 1.11 | 1.09 | 0.98 |
| OGN (GeneID 4969) | 1.19 | 0.88 | 0.74 |
| PKIB (GeneID 5570) | 0.55 | 0.44 | 0.8 |
| TBATA (GeneID 219793) | 1 | 0.82 | 0.82 |
| NME7 (GeneID 29922) | 0.85 | 0.84 | 0.99 |
| STX16 (GeneID 8675) | 1.11 | 1.04 | 0.94 |
| CASKIN2 (GeneID 57513) | 1.1 | 0.97 | 0.88 |
| CAPN2 (GeneID 824) | 0.92 | 0.47 | 0.51 |
| SLBP (GeneID 7884) | 0.87 | 0.4 | 0.46 |
| PCYT1B (GeneID 9468) | 0.95 | 0.87 | 0.92 |
| MATK (GeneID 4145) | 0.98 | 0.8 | 0.82 |
| CDY1B (GeneID 253175) | 1.21 | 0.7 | 0.58 |
| FOXJ2 (GeneID 55810) | 0.85 | 0.82 | 0.96 |
| ABCC8 (GeneID 6833) | 1.13 | 0.77 | 0.68 |
| UXS1 (GeneID 80146) | 1.09 | 1.11 | 1.02 |
| CENPW (GeneID 387103) | 1.06 | 0.72 | 0.68 |

3 entries already listed, sorted by “CDH1-null / parental viability ratio”, descending:
| target gene | CDH1-null / parental viability ratio | CDH1-null viability vs mock (fraction of mock) | parental viability vs mock (fraction of mock) |
| --- | --- | --- | --- |
| TNS1 (GeneID 7145) | 1.27 | 0.8 | 0.63 |
| OGN (GeneID 4969) | 1.19 | 0.88 | 0.74 |
| TMEM81 (GeneID 388730) | 1.11 | 1.09 | 0.98 |

The list goes on.
| target gene | CDH1-null / parental viability ratio | CDH1-null viability vs mock (fraction of mock) | parental viability vs mock (fraction of mock) |
| --- | --- | --- | --- |
| ELN (GeneID 2006) | 0.83 | 0.4 | 0.48 |
| FOSL1 (GeneID 8061) | 1.17 | 1.05 | 0.9 |
| RALA (GeneID 5898) | 0.99 | 0.87 | 0.88 |
| CXCR1 (GeneID 3577) | 0.81 | 0.66 | 0.81 |
| PDE3A (GeneID 5139) | 1.11 | 1.04 | 0.94 |
| ARMCX6 (GeneID 54470) | 0.88 | 0.87 | 0.99 |
| PPAN (GeneID 56342) | 0.93 | 0.78 | 0.84 |
| GRPEL2 (GeneID 134266) | 0.94 | 0.66 | 0.7 |
| CFAP263 (GeneID 29070) | 1.36 | 0.3 | 0.22 |
| TEPSIN (GeneID 146705) | 1.13 | 0.62 | 0.55 |
| TMEM59L (GeneID 25789) | 0.92 | 0.88 | 0.96 |
| PIGN (GeneID 23556) | 1.02 | 0.98 | 0.96 |
| NECAP2 (GeneID 55707) | 0.84 | 0.38 | 0.45 |
| SLC4A9 (GeneID 83697) | 0.93 | 0.84 | 0.9 |
| ASB18 (GeneID 401036) | 1.03 | 0.74 | 0.72 |
| HTR1F (GeneID 3355) | 0.89 | 0.96 | 1.08 |
| PIK3R6 (GeneID 146850) | 1.29 | 0.75 | 0.58 |
| CD27 (GeneID 939) | 0.99 | 0.82 | 0.83 |
| CYP2B6 (GeneID 1555) | 0.96 | 0.48 | 0.5 |
| AFF4 (GeneID 27125) | 0.91 | 0.73 | 0.8 |
| LMNB1 (GeneID 4001) | 1.24 | 0.46 | 0.37 |
| NEMF (GeneID 9147) | 1.08 | 0.84 | 0.78 |
| ALKBH5 (GeneID 54890) | 0.78 | 0.64 | 0.82 |
| SNRNP200 (GeneID 23020) | 1.25 | 0.2 | 0.16 |
